The values that follow come from paper PMC7588011, “Engineering Stem Cell Factor Ligands with Different c-Kit Agonistic Potencies” (Molecules, 2020).

In assay [1] the target is yeast-surface displayed SCFWT (UniProt P21583). In words: flow cytometry on cells; homo-dimerization: purified soluble SCF protein (62.5-500 nM) on yeast displaying the same SCF protein, 1% PBSA, 2 h, 4 °C; detected with APC anti-Flag; normalized to SCFWT at 500 nM; only the binder purified. A general note: In flow cytometry, cells or beads pass a laser one at a time.
The target of assay [2] is wild-type stem cell factor, soluble, non-glycosylated (UniProt P21583). In words: dynamic light scattering; purified proteins in PBS, 0.3-0.5 mg/mL, 25 °C; hydrodynamic radius; monomer to dimer; both purified.
Assay [3] concerns the target SCF_(M,K91E), soluble (UniProt P21583). Described as above.
Assay [4] addresses yeast-surface displayed SCF_(M,K91E,L98R) (UniProt P21583). In words: flow cytometry on cells; homo-dimerization: purified soluble SCF protein (62.5-500 nM) on yeast displaying the same SCF protein, 1% PBSA, 2 h, 4 °C; detected with APC anti-Flag; normalized to SCFWT at 500 nM; only the binder purified.
Assay [5] concerns the target SCF_(M,K91E,L98R), soluble (UniProt P21583). In words: dynamic light scattering; purified proteins in PBS, 0.3-0.5 mg/mL, 25 °C; hydrodynamic radius; monomer to dimer; both purified.

Positions count from the first letter of the chain named. Names may count otherwise. No constants are given. Whether binding was seen depends on the method and setting. Some entries that bind do so weakly or less than the wild type.

Take “wild-type stem cell factor, soluble, non-glycosylated (from UniProt P21583 26-214) (ligand)”: the binding entry in assay [1] and in assay [2] was “binds” in each case.

B1: SCF_(M,K91E), soluble (ligand, UniProt P21583 26-214, looked up)
chain: EGICRNRVTNNVKDVTKLVANLPKDYMITLKYVPGMDVLPSHCWISEMLVQLSDSLTDLLDKLSNISEGLSNYSIIDKLVNIVDDLVECVEENSSKDLKKSFKSPEPRLFTPEEFFRIFNRSIDAFKDFVVASETSDCVVSSTLSPEKDSRVSVTKPFMLPPVAASSLRNDSSSSNRKAKNPPGDSSLH
notes: stem cell factor (SCF), SCFM (V49L, F63L) with K91E, selected from the first-generation yeast display library; source: purified in non-glycosylated form (production described in the Supplementary Materials)
In the case of B1, in assay [3], the binding entry is reported as “no binding (tested: 0.3–0.5 mg/mL)”.

B2: SCF_(M,K91E,L98R), soluble (ligand, UniProt P21583 26-214, looked up)
chain: B1 chain with L98R
notes: stem cell factor (SCF), SCFM (V49L, F63L) with K91E and L98R, selected from the second-generation yeast display library; also called SCF_(K91E,L98R); source: purified in non-glycosylated form (production described in the Supplementary Materials)
Regarding B2, the binding result in assay [4] and in assay [5] was “binds” in each case.
